In PubChem BioAssay AID504834 (National Center for Advancing Translational Sciences (NCATS), 2011):
The campaign covered roughly 320,000 compounds. About 22,000 (6.9%) were called active. Inconclusive results, whose numbers are uncertain, are shown with a selection of clear calls. Calls come from the whole dose curve; as a rule, active = well fitted inhibition curve with a large enough effect; inconclusive = small, poorly fitted or top-dose-only effect, or another doubt; inactive = no such curve, though single readings can be large or run the other way. Potencies beside an inconclusive call are fits to weak or partial responses and may not hold up.

Assay: Primary qHTS for delayed death inhibitors of the malarial parasite plastid, 96 hour incubation
Settings: P. falciparum luciferase reporter growth; series mostly up to 28.7 µM; activity change, negative = inhibition: at the top concentration
Method in brief: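 Erythrocytes infected with luciferase-expressing P. falciparum were dispensed at 2% hematocrit and 0.05% parasitemia (final), then incubated with compounds 96 hours at 37 C in 5% CO2. Luminescence after detection reagent addition reported growth.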
% is set by controls: 0 for no effect and ±100 for the full control effect; potency is the fitted concentration of half-maximal effect.

SMILES	Potency	activity change, negative = inhibition
CCOc1ccc(-n2c(=S)sc3c(=O)[nH]c(SCC(=O)C(C)(C)C)nc32)cc1	inconclusive: 9.28 µM [inhibitor, single point]	–
O=C(O)c1cc(NN=C2c3ccccc3-c3ccccc32)ccc1Cl	–	inactive: 6.76%
CN(C)S(=O)(=O)c1cccc(NC(=O)C2Cc3ccccc3CN2C(=O)c2ccco2)c1 (configuration not stated)	inconclusive: 11.7 µM [inhibitor, single point]	–
COc1ccc(OC)c(S(=O)(=O)NCc2csc(-c3ccccc3)n2)c1	–	inactive: -0.776%
Cc1ccccc1Cn1c2ccccc2c2cnn(CC(=O)NCc3ccco3)c(=O)c21	–	inactive: -25.7%
O=C(c1ccc(C(F)(F)F)cc1)N1CCC(=O)N(C(COCc2ccc(C(F)(F)F)cc2)Cc2ccccc2)CC1 (configuration not stated)	active: 9.28 µM	–
O=C(c1ccncc1)C12CN3CN(CN(C3)C1)C2	inconclusive: 0.131 µM [inhibitor, partial curve, poor fit]	–
CCOc1ccccc1Oc1coc2cc(OC)ccc2c1=O	–	inactive: 28.7%
OC(COc1c(F)cc(Br)cc1F)CN1CCOCC1 (configuration not stated)	–	inactive: 5.35%
Cc1ccc(N(C(=O)c2csnn2)C(C(=O)NC2CCCCC2)c2ccncc2)c(C)c1 (configuration not stated)	inconclusive: 2.08 µM [inhibitor, partial curve, poor fit]	–
CCOC(=O)c1c(N)sc2c1CCCC2	inconclusive: 5.22 µM [inhibitor, partial curve]	–
NS(=O)(=O)c1ccc(NC(=O)CSc2nc3ccccc3n2-c2ccccc2)cc1	inconclusive: 10.4 µM [inhibitor, partial curve, poor fit]	–
O=C(NCc1ccc(Cl)cc1)C1CCN(S(=O)(=O)c2cccnc2)CC1	inconclusive: 7.38 µM [inhibitor, partial curve]	–
Cc1ccc(-n2nnnc2C(Cl)(Cl)c2nnnn2-c2ccc(C)cc2)cc1	inconclusive: 0.37 µM [inhibitor, full curve, poor fit]	–
O=C(Nc1nnc(C2CC2)s1)C1Cc2ccccc2CN1C(=O)c1ccco1 (configuration not stated)	inconclusive: 2.62 µM [inhibitor, full curve, poor fit]	–
O=S(=O)(c1ccc(-c2ccon2)s1)N1CCCC1	–	inactive: 18.8%
O=C(Nc1cc(C(F)(F)F)ccc1N1CCOCC1)c1cccs1	inconclusive: 14.7 µM [inhibitor, single point]	–
O=C(Cc1ccccc1)Oc1ccc([N+](=O)[O-])cc1	inconclusive: 7.38 µM [inhibitor, partial curve, poor fit]	–
CC1CC(C)(C)CC2(C1)NC(=O)N(CC(=O)NC1CCCc3ccccc31)C2=O (configuration not stated)	inconclusive: 20.8 µM [inhibitor, single point]	–
CCCCc1n[nH]c2c1/C(=N/OCC)CC(C)(C)C2	–	inactive: 0%
CCn1cc(CN2CCN(C)C(CCO)C2)c2ccccc21 (configuration not stated)	active: 13.1 µM	–

SMILES	Potency	activity change, negative = inhibition
Cc1cccc(C)c1NC(=O)N1CCC(n2c(=O)[nH]c3ccccc32)CC1	inconclusive: 18.5 µM [inhibitor, single point]	–
O=C(Cn1cc2c(n1)CCCC2)NCc1cccnc1	inconclusive: 9.28 µM [inhibitor, partial curve, poor fit]	–
Cc1nn(C)c(C(=O)NC(=S)Nc2ccccc2O)c1Cl	inconclusive: 8.28 µM [inhibitor, partial curve]	–
CCOc1ccc(C(=S)N2CCCC2)c(OCC)c1	inconclusive: 11.7 µM [inhibitor, single point]	–
COC(=O)c1ccccc1CON1C(=O)C(C)(C)N(OCc2ccccc2C(=O)OC)C(=O)C1(C)C	inconclusive: 13.1 µM [inhibitor, partial curve, poor fit]	–
O=C1OC(/C(=C\Nc2ccc(F)cc2F)[N+](=O)[O-])c2ccccc21 (configuration not stated)	–	inactive: -197%
COc1cccc(Cn2nnc(C(=O)Nc3cc(C)ccc3OC)c2N)c1	inconclusive: 13.1 µM [inhibitor, single point]	–
CCN(CC)S(=O)(=O)c1cc(NC(=O)CN2CCN(c3ccccn3)CC2)ccc1C	inconclusive: 7.38 µM [inhibitor, partial curve, poor fit]	–
Cc1c(Cl)cccc1NC(=S)N1CCN(S(=O)(=O)c2cccs2)CC1	inconclusive: 4.65 µM [inhibitor, single point]	–
CC(=O)c1ccc(-c2nnc(CCC(=O)N(C)Cc3cccc4cnccc34)o2)s1	inconclusive: 2.62 µM [inhibitor, partial curve, poor fit]	–
Cc1ccc(-c2ccc(/C=N/NC(=S)Nc3ccccc3)o2)cc1[N+](=O)[O-]	inconclusive: 16.5 µM [inhibitor, partial curve, poor fit]	–
CC(=O)Nc1ccc(NC(=O)C(Cc2ccccc2)NC(=O)C2CCC(C)CC2)cc1 (configuration not stated)	active: 0.329 µM	–
O=C(N/N=C/c1c[nH]c2ccccc12)c1cccc(Cl)c1	inconclusive: 4.15 µM [inhibitor, partial curve]	–
CCOc1ccccc1C(=O)NC1CC2CCCC(C1)N2Cc1nnnn1Cc1ccco1 (configuration not stated)	inconclusive: 10.4 µM [inhibitor, single point]	–
Fc1ccccc1Cc1noc(CN2CCC(OCc3cccnc3)CC2)n1	–	inactive: 43%
COC(=O)C1C(O)=C(C(C)=N)C(=O)CC1(C)C (configuration not stated)	inconclusive: 10.4 µM [inhibitor, single point]	–
O=C(CN1CCc2ccccc2C1)NCC(=O)Nc1ccc(F)cc1	inconclusive: 9.28 µM [inhibitor, single point]	–
COc1ccc(C(=O)C2CCCN(C(=O)c3cccc(Cl)c3F)C2)cc1OC (configuration not stated)	inconclusive: 18.5 µM [inhibitor, partial curve, poor fit]	–
O=C1N=c2ccccc2=C1c1c(O)[nH]c2c(C(F)(F)F)cccc12	inconclusive: 13.1 µM [inhibitor, single point]	–
CCN(CC)CCNc1nc(-c2ccc(OC(F)F)cc2)c(C)s1	inconclusive: 18.5 µM [inhibitor, single point]	–
NC(=S)N/N=C/c1ccc(-c2cc(Cl)c(Cl)cc2Cl)o1	inconclusive: 9.28 µM [inhibitor, single point]	–

Copied from the entries so far for reference:
SMILES	Potency	activity change, negative = inhibition
COC(=O)C1C(O)=C(C(C)=N)C(=O)CC1(C)C (configuration not stated)	inconclusive: 10.4 µM [inhibitor, single point]	–
O=C(CN1CCc2ccccc2C1)NCC(=O)Nc1ccc(F)cc1	inconclusive: 9.28 µM [inhibitor, single point]	–
COc1ccc(C(=O)C2CCCN(C(=O)c3cccc(Cl)c3F)C2)cc1OC (configuration not stated)	inconclusive: 18.5 µM [inhibitor, partial curve, poor fit]	–
